# Source: the supplement of paper PMC6690932
# Where “and” joins values, the source holds several entries; their conditions need not be identical. Equal entries are not always repeated. Structures can show the parent of a compound that is named as a salt. ± gives the standard deviation of the averaged measurements. Some of the results follow. Many values rest on one well or one pass, so single values are uncertain.
# System: HeLa
# Test: lysosomal-METRIQ red/green fluorescence ratio relative to DMSO (ratio to DMSO); higher = higher lysosomal activity / lysosomal biogenesis
# Details: 10 µM; 12 h
row,SMILES,lysosomal-METRIQ red/green fluorescence ratio
1,N#CC(=C(/N)Sc1ccccc1N)/C(C#N)=C(/N)Sc1ccccc1N,0.938 and 1.07
2,CS(=O)(=O)c1ccc(C(=O)Nc2ccc(Cl)c(-c3ccccn3)c2)c(Cl)c1 [Vismodegib],1
3,CC(C)[C@H](CO)Nc1nc(Nc2cccc(Cl)c2)c2ncn(C(C)C)c2n1 [Purvalanol A],1.15
4,Cc1cc(Nc2cc(N3CCN(C)CC3)nc(/C=C/c3ccccc3)n2)n[nH]1,0.818
5,Cc1cc(N)c2ccccc2[n+]1CCCCCCCCCC[n+]1c(C)cc(N)c2ccccc21 [Dequalinium],0.88
6,CCOc1nc(NC(=O)Cc2cc(OC)ccc2OC)cc(N)c1C#N [JNK inhibitor VIII],0.875
7,"N#CCCc1ccc2c(c1)-c1[nH]c3ccc([N+](=O)[O-])cc3c1CC(=O)N2 [Alsterpaullone, 2-cyanoethyl]",3.18
8,CC#C[C@]1(O)CC[C@H]2[C@@H]3CCC4=CC(=O)CCC4=C3[C@@H](c3ccc(N(C)C)cc3)C[C@@]21C [Mifepristone],0.96
9,Cc1c(C)c2c(c(C)c1O)CCC(C)(COc1ccc(CC3SC(=O)NC3=O)cc1)O2 (stereo not given) [Troglitazone],1
10,COC(=O)c1ccc(NCc2cc(O)ccc2O)cc1,1
11,CCC(=C/[C@H](C)C/C=C/C(C)=C/[C@@H](C)C(=O)[C@@H](C)[C@H](O)[C@@H](C)C/C(C)=C/C(=O)O)/C=C/[C@@H]1OC(=O)C=C[C@@H]1C [Leptomycin B*],1.61
12,NCC(=O)Nc1ccc(-n2nc(C(F)(F)F)cc2-c2ccc3c(ccc4ccccc43)c2)cc1,1
13,O=C(c1cc(Cc2n[nH]c(=O)c3ccccc23)ccc1F)N1CCN(C(=O)C2CC2)CC1 [Olaparib],0.818
14,CC(C)C[C@@H](C=O)NC(=O)[C@H](CC(C)C)NC(=O)[C@H](CC(C)C)NC(=O)OCc1ccccc1,0.467
15,Cc1cc([N+](=O)[O-])ccc1NS(=O)(=O)c1cc(Cl)ccc1Cl,1.09
16,COc1c(C=O)c(O)cc2c1C(=O)c1ccccc1C2=O [Damnacanthal],1.16 ± 0.14
17,CC(C)C[C@H](NC(=O)[C@@H](O)[C@H](N)Cc1ccccc1)C(=O)O [Bestatin],0.581
18,CCCCCCCC(=O)OCCOC(=O)CCCCCCC [Dioctanoylglycol],1.04

# Molecules listed so far containing an aryl methoxy group (2):
row,SMILES,lysosomal-METRIQ red/green fluorescence ratio
6,CCOc1nc(NC(=O)Cc2cc(OC)ccc2OC)cc(N)c1C#N [JNK inhibitor VIII],0.875
16,COc1c(C=O)c(O)cc2c1C(=O)c1ccccc1C2=O [Damnacanthal],1.16 ± 0.14

# Next results:

row,SMILES,lysosomal-METRIQ red/green fluorescence ratio
1,CS(=O)(=O)Nc1ccc([N+](=O)[O-])cc1OC1CCCCC1,1.05
2,O=C1CCC(N2C(=O)c3ccccc3C2=O)C(=O)N1 (stereo not given) [thalidomide],0.818
3,CSCC[C@H](NC(=O)c1ccc(NC[C@@H](N)CS)cc1-c1ccccc1)C(=O)O,1.05
4,CO[C@H]1C[C@@H]2CC[C@@H](C)[C@@](O)(O2)C(=O)C(=O)N2CCCC[C@H]2C(=O)O[C@H]([C@H](C)C[C@@H]2CC[C@@H](O)[C@H](OC)C2)CC(=O)[C@H](C)/C=C(\C)[C@@H](O)[C@@H](OC)C(=O)[C@H](C)C[C@H](C)/C=C/C=C/C=C/1C [Rapamycin],1.2
5,NC(=O)c1cccc2cn(-c3ccc([C@@H]4CCCNC4)cc3)nc12 [MK-4827 (Niraparib)],0.955
6,COc1cc(Nc2ncc3c(n2)-c2ccc(Cl)cc2C(c2c(F)cccc2OC)=NC3)ccc1C(=O)O,1
7,Nc1cccc(-c2cc3c(Oc4cccc(O)c4)ncnc3[nH]2)c1,0.727
8,Oc1c2ccccc2c2c3c(cccc13)N=N2,0.969 ± 0.044
9,"CCNCCCNCCCCNCCCNCC [N1,N12-Diethylspermine (BESpm)]",1.04
10,Nc1nc2c(nc(Sc3ccc(Cl)cc3)n2C2O[C@@H]3CO[P+](O)(S)OC3[C@@H]2O)c(=O)[nH]1 (stereo not given in full),0.947 ± 0.013
11,CNC(=O)[C@H](Cc1c[nH]c2ccccc12)NC(=O)[C@@H](CC(=O)NO)CC(C)C,1
12,COc1cc2ncnc(Nc3ccc(NC(=O)c4ccccc4)cc3)c2cc1OC [Aurora kinase inhibitor II],1.05
13,CC(C)(C)NC(=O)[C@H]1CC[C@H]2[C@@H]3CC[C@H]4NC(=O)C=C[C@]4(C)[C@H]3CC[C@]12C [Finasteride],1.04
14,O=C(Nc1cccc(NC(=O)c2cccc(O)c2O)c1)c1cccc(O)c1O,1.09
15,c1cc(CN2CCCNCCNCCCNCC2)ccc1CN1CCCNCCNCCCNCC1 [AMD3100 octahydrochloride],1.08
16,CNC(=N)NCCC[C@H](N)C(=O)O,1.07
17,O=C(NCCCCCCNC(=O)ON=C1CCCCC1)ON=C1CCCCC1,1
